From the supplement of paper PMC6078165

Tested on: BT20
Test: relative JC-1 red fluorescence (viability) vs pre-drug, coculture with fibroblast (fraction); higher = more viable cancer cells
Protocol: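 JC-1 labelled TNBC cells cocultured 1:1 (1,500 cells each) with CellTrace Violet stained primary or stromal fibroblasts in 384-well plates in FluoroBrite medium, treated with one of 42 anticancer drugs at 0.1, 1, 10 or 100 uM. JC-1 red fluorescence (mitochondrial integrity in cancer cells only) was read by plate reader every 8 h for 72 h. Values are normalised to each well's pre-drug value. The stock of one drug was tenfold lower, so its dose labels may be too high.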

O=C(O)C(=O)O.[NH-][C@@H]1CCCC[C@H]1[NH-].[Pt+2] [Oxaliplatin]
relative JC-1 red fluorescence
Details	8 h	16 h	24 h	32 h	40 h	48 h	56 h	64 h	72 h
0.1 µM, coculture fibroblast: C12385	0.9156	0.921	0.952	0.913	0.866	0.841	0.823	0.82	0.822
0.1 µM, coculture fibroblast: H6013	0.948	0.934	0.872	0.892	0.881	0.849	0.816	0.912	0.881
0.1 µM, coculture fibroblast: H6019	0.873	0.81	0.779	0.71	0.662	0.644	0.614	0.599	0.571
0.1 µM, coculture fibroblast: H6076	0.921	0.9352	0.874	0.859	0.846	0.829	0.837	0.8415	0.8443
0.1 µM, coculture fibroblast: H6231	0.98	0.9101	0.8411	0.7902	0.7814	0.7417	0.712	0.704	0.703
0.1 µM, coculture fibroblast: HADF	0.942	0.948	0.9236	0.88	0.803	0.93	0.835	0.838	0.795
0.1 µM, coculture fibroblast: HCFa	0.933	0.864	0.817	0.761	0.721	0.691	0.678	0.665	0.632
0.1 µM, coculture fibroblast: HCPF	0.852	0.9229	0.859	0.82	0.788	0.757	0.729	0.726	0.704
0.1 µM, coculture fibroblast: HHSteC	0.945	0.918	0.92	0.867	0.85	0.825	0.82	0.808	0.796
0.1 µM, coculture fibroblast: HMF	0.861	0.933	0.847	0.793	0.759	0.725	0.692	0.668	0.653
0.1 µM, coculture fibroblast: HPFa	0.89	0.895	0.892	0.924	0.908	0.884	0.879	0.865	0.837
0.1 µM, coculture fibroblast: HUF	0.8915	0.8171	0.8	0.732	0.685	0.651	0.643	0.637	0.619
0.1 µM, coculture fibroblast: Hs5	0.9927	0.931	0.902	0.8696	0.865	0.8463	0.8476	0.8268	0.8232
0.1 µM, coculture fibroblast: Hs27A	0.797	0.818	0.894	0.977	0.96	0.958	0.969	0.966	0.927
0.1 µM, coculture fibroblast: Hs343T	0.848	0.8894	0.765	0.693	0.6364	0.6033	0.5622	0.544	0.5227
0.1 µM, coculture fibroblast: WS1	0.848	0.77	0.72	0.645	0.586	0.563	0.544	0.527	0.526
1 µM, coculture fibroblast: C12385	0.894	0.814	0.766	0.71	0.662	0.625	0.598	0.575	0.556
1 µM, coculture fibroblast: H6013	0.9624	0.916	0.901	0.864	0.841	0.839	0.837	0.817	0.808
1 µM, coculture fibroblast: H6019	0.848	0.769	0.743	0.678	0.633	0.618	0.583	0.557	0.539
1 µM, coculture fibroblast: H6076	0.96	0.855	0.776	0.751	0.719	0.705	0.688	0.682	0.661
1 µM, coculture fibroblast: H6231	0.734	0.934	0.7976	0.727	0.683	0.637	0.5951	0.563	0.531
1 µM, coculture fibroblast: HADF	0.733	0.9042	0.79498	0.787	0.763	0.723	0.682	0.645	0.608
1 µM, coculture fibroblast: HCFa	0.96	0.917	0.899	0.857	0.826	0.794	0.774	0.751	0.709
1 µM, coculture fibroblast: HCPF	0.875	0.886	0.798	0.754	0.707	0.659	0.615	0.589	0.554
1 µM, coculture fibroblast: HHSteC	0.9025	0.82	0.80393	0.72771	0.6739	0.6398	0.605	0.586	0.563
1 µM, coculture fibroblast: HMF	0.9788	0.8526	0.739	0.674	0.627	0.572	0.533	0.497	0.468
1 µM, coculture fibroblast: HPFa	0.837	0.892	0.91	0.829	0.807	0.764	0.733	0.699	0.642
1 µM, coculture fibroblast: HUF	0.89967	0.789	0.76	0.685	0.636	0.606	0.587	0.566	0.553
1 µM, coculture fibroblast: Hs5	0.99	0.885	0.824	0.779	0.734	0.689	0.653	0.615	0.589
1 µM, coculture fibroblast: Hs27A	0.898	0.786	0.94798	0.9316	0.8929	0.87	0.8508	0.823	0.769
1 µM, coculture fibroblast: Hs343T	0.9272	0.836	0.748	0.696	0.662	0.626	0.594	0.583	0.559
1 µM, coculture fibroblast: WS1	0.922	0.825	0.823	0.784	0.745	0.725	0.713	0.6948	0.694

Values are relative to the signal before dosing, not to a vehicle control; the signal also falls without drug.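 Labels refer to human fibroblasts, largely primary: uterine (C12385, HUF), lung (H6013), bone (Hs27A), adrenal (HADF), skin (WS1), plus mammary HMF and breast cancer-associated Hs343T. Cancer lines are basal-like or mesenchymal-like triple-negative breast cancer. The paper counts as hits responses shifting over 3x the replicate standard deviation. The tissue of the other fibroblasts is not given here.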
